The results in this text go back to patent US10690635 (dated 2020).

The series can be described thus: general procedure: Fmoc solid-phase peptide synthesis. Particulars: for crude HPLC purity: whole synthesis.

Plain letter strings leave the end groups untold.

For the sequence HAEGTFTSDVSSYLEGQAAKEFIAWLVRGRG, the “final HPLC purity” value is, setting by setting: (purification step, 220 nm) 99.35%; (purification step, RP-UHPLC) 98.8%; (purification step, analytical RP-UHPLC, relative peak area, UV detection at 220 nm, run 1) 99.38%; (purification step, analytical RP-UHPLC, relative peak area, UV detection at 220 nm, run 2) 99.36%; (purification step, analytical RP-UHPLC, relative peak area, UV detection at 220 nm, run 3) 99.3%. The “final purity (method not given)” value (purification step, analytical RP-UHPLC, relative peak area, UV detection at 220 nm) is on record as 99.2%. Further, the step yield is 91% (purification step, overall net peptide yield of desalting) and 35% (purification step, overall yield after both purification steps). In addition, the “crude HPLC purity” value is reported as “>=60%” (analytical RP-UHPLC, relative peak area, UV detection at 220 nm, run 1) and greater than 60% (analytical RP-UHPLC, relative peak area, UV detection at 220 nm, run 2).
